# US10000791B2, “Measurement method for human pancreatic lipase activity” (ASAHI KASEI PHARMA CORPORATION, priority 2013, dated 2018)
# At least one structure is not confirmed: it was looked up by name or label, or the drawing left a doubt. Some of these results come from one statement about several compounds together.
# Test system: human pancreatic lipase
# Assay: pH dependence of human pancreatic lipase activity in the presence of bile acids (diglyceride substrate, UV method)
# Format: biochemical
# Procedure: After weighing 1,2-dioleoyl glycerol (DODG) (manufactured by Nippon Fine Chemical Co., Ltd.) to attain a concentration of 9.32 mmol/L when dissolved, 1% polyoxyethylene (10) nonyl phenyl ether (NPE) (manufactured by Wako Pure Chemical Industries Ltd.) containing 1.66 mmol/L of MES (manufactured by Dojindo Laboratories) was added thereto to be dissolved therein by stirring at 37° C. for 2 hours, and the resultant was allowed to stand still in ice for 2 hours or more. The thus obtained solution was used as a substrate original liquid.
# The above-described diglyceride original liquid was used for preparing a “substrate stock solution” having the following composition:
# A “first reaction solution (R-1)” having the following composition was prepared:
# A “second reaction solution (R-2)” having the following composition was prepared:
# A “second reaction solution (R-2) for sample blank” having the following composition was prepared:
# A mixture of the substrate stock solution and the R-1 in a proportion of 1:2 was used as a first reagent. The R-2 was directly used as a second reagent. As a sample, pooled serum or a control sample (a control containing a pancreatic lipase) was used. A proportion in amount among the sample, the first reagent and the second reagent was set as sample:first reagent:second reagent of 0.01 ml:0.18 ml:0.06 ml. The sample was added to the first reagent, the resultant mixture was heated at 37° C. for 5 minutes, the second reagent was added thereto, and a change rate of an absorbance at 340 nm based on reduced NADP was obtained at 37° C. from 3 minutes after the addition of the second reagent to 4 minutes after the addition, and then, the lipase activity was calculated by using a molecular extinction coefficient of 6300 L/mol·cm of the reduced NADP. Besides, as a sample blank, saline was used instead of a sample, an absorbance was measured by using the reagent for sample blank obtained by removing MGLPII from the second reagent, and a difference between the thus measured two values was defined as an enzyme activity value. […]
compound,measurement,setting,value
"C[C@H](CCC(=O)O)[C@H]1CC[C@H]2[C@@H]3CC[C@@H]4C[C@H](O)CC[C@]4(C)[C@H]3C[C@H](O)[C@]12C [DCA, deoxycholic acid]","pH dependence of human pancreatic lipase activity, non-conjugated acid versus sodium salt",taurodeoxycholic acid/deoxycholic acid 24/12 and 0/36 mmol/L,no difference
"C[C@H](CCC(=O)NCCS(=O)(=O)[O-])[C@H]1CC[C@H]2[C@@H]3[C@@H](O)C[C@@H]4C[C@H](O)CC[C@]4(C)[C@H]3CC[C@]12C.[Na+] [NaTCDCA, sodium taurochenodeoxycholate]",pH for giving a maximum value of the human pancreatic lipase activity (apparent optimum pH),"pooled serum, conjugated bile acid singly, 40 mmol/L in R-1, BES pH 6.8-8.0",lower than 6.8
"C[C@H](CCC(=O)NCC(=O)[O-])[C@H]1CC[C@H]2[C@@H]3CC[C@@H]4C[C@H](O)CC[C@]4(C)[C@H]3C[C@H](O)[C@]12C.[Na+] [NaGDCA, sodium glycodeoxycholate]",pH for giving a maximum value of the human pancreatic lipase activity,"human pooled serum, pH changed between 7.4 and 8.4 (Example 12)",lower than 7.4
